The source of these data is publication PMC13596061.

The target in test [1] is PICLN (Arabidopsis thaliana). As to the kind of experiment: two-hybrid; one-to-one Y2H; CDSs in pGADT7 (AD) or pGBKT7 (BD); yeast strain AH109; co-transformants selected on SD -W -L at 28 °C; serial dilutions on SD -W -L -H; photos after 4 d.
Test [2] has as its target AtSPF30 (SPLICING FACTOR 30) (Arabidopsis thaliana). The test is described as above.

No constants are given. Whether binding was seen depends on the method and setting. For some assays here: A result given as binding can be weak or reduced; the word gives no strength.

B1: AtPRMT7 (enzyme, UniProt Q944R7 1-724)
chain: MSPLSSLPPKTFISSFHCHSVTRLRRSVTARTMSSQSSQRVFQLRQDPLTGNSEWIVIEDNDQPGTSTDGLLATTSYLDMLNDSRRNIAYRLAIEKTITEPCHVLDIGAGTGLLSMMAVRAMRGDSKGMVTACESYLPMVKLMRKVMHKNGMTKNINLINKRSDELKVGSEDIASRADVLVSEILDSELLGEGLIPSLQHAHDMLLVDNPKTVPYRATTYCQLVESTFLCNLQDLRNNEAKTSDGVRLVPPGLESLFGIKSQQYSMHVDAIEKEIKLLSEPVKIFEFDFWKRPESNGELDVHIEAKTTGSVHAIISWWVLQLDSEGTIFYSTAPRWIDSNSEIGVRDWCDHWKQCVWFTPGTGVSISKGEKVHLHASHTCTNILYNLKKTQSLTHERTHFPLSTGDLHLTLPPERVAIYGDSIYRQSLFEATRKALQGKSYPQCLVIDDSLLLPLMALHISNRSRVLSLSPGLQENAARYFEAIADSNGFSKDRFEYFRDGKTNLAKAYPGKIDLLIGEPYYSGLENGLPWQNLRFWKDRTLLDSVLSEDAVVMPYKGVLRGCAMYLPDLWKSRCCLGSVEGFDHTLVNTTLGGCGDLPSGKDSPCLPFFIWQCGETKILSKEFTVMEFDFSKPITGPCSGEVQIEFIKPGVCHGIALWMDWVMDEENSTVISTGPDDKYWKQGVKLLGKPVTVRMEGPSSSIGIQASLDLSSNSELIVTHTIS
As for B1, in test [1], the binding result was “no binding”.

B2: 6B-interacting protein 1-like-1 (ASIL1) (protein, UniProt Q9SYG2 1-383)
chain: MEDDDEIQSIPSPGDSSLSPQAPPSPPILPTNDVTVAVVKKPQPGLSSQSPSMNALALVVHTPSVTGGGGSGNRNGRGGGGGSGGGGGGRDDCWSEEATKVLIEAWGDRFSEPGKGTLKQQHWKEVAEIVNKSRQCKYPKTDIQCKNRIDTVKKKYKQEKAKIASGDGPSKWVFFKKLESLIGGTTTFIASSKASEKAPMGGALGNSRSSMFKRQTKGNQIVQQQQEKRGSDSMRWHFRKRSASETESESDPEPEASPEESAESLPPLQPIQPLSFHMPKRLKVDKSGGGGSGVGDVARAILGFTEAYEKAETAKLKLMAELEKERMKFAKEMELQRMQFLKTQLEITQNNQEEEERSRQRGERRIVDDDDDRNGKNNGNVSS
B2: the binding result in test [2] was “binds”.
